Common to all, as to details: remark: other sources report otherwise
Assay [1] concerns the target T1, ATOX1 (human copper chaperone), wild type (human), O00244.
T1 chain: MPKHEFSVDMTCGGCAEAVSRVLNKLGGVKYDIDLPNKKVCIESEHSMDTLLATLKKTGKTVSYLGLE
Briefly: SEC; Bio-Gel P-10 column; 1 mM ATOX1 + 2 mM Cu(II) + 3 mM DTT; first peak at the void volume, second peak at fraction 35-36; both purified. In general terms: In gel filtration, larger molecules generally elute earlier.

Assay [2] has as its target T1, ATOX1 (human copper chaperone), wild …. The assay is described as follows: SDS-PAGE; 16% SDS-PAGE without or with 300 mM 2-mercaptoethanol in the sample buffer; 0.3 mM protein untreated, reduced (+DTT 3:1) or 1:1 metal/protein + DTT; the paper calls the experiment inconclusive as to the effects of the metals; both purified.
For assay [3], the target named is T2, Atx1 (yeast copper chaperone) (yeast (Saccharomyces cerevisiae)), P38636.
T2 chain: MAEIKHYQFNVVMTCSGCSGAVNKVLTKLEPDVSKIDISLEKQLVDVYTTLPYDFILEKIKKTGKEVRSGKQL
The description is as above.

These are yes or no findings as the source states them, for the method shown. Some entries that bind do so weakly or less than the wild type. For part of these data: Where a sequence is shown, tags or fusion partners need not be part of it.

B1: ATOX1 (human copper chaperone), wild type, O00244 1-68 (natural protein)
chain: T1 chain
In the case of B1, the binding entry in assay [1] and in assay [2] was “binds” throughout.

B2: Atx1 (yeast copper chaperone), P38636 1-73 (natural protein)
chain: T2 chain
With B2, the binding result in assay [3] is “binds”.

For the origin of these results see PMC2267068, “Comparative Analysis of Metal Binding Characteristics of Copper Chaperone Proteins, Atx1 and ATOX1” (Bioinorganic Chemistry and Applications, 2004).
